{
  "sequences": {"note": "Sequences of proteins named here, by UniProt entry; tags and fusion partners are left off.", "UniProt P46937": "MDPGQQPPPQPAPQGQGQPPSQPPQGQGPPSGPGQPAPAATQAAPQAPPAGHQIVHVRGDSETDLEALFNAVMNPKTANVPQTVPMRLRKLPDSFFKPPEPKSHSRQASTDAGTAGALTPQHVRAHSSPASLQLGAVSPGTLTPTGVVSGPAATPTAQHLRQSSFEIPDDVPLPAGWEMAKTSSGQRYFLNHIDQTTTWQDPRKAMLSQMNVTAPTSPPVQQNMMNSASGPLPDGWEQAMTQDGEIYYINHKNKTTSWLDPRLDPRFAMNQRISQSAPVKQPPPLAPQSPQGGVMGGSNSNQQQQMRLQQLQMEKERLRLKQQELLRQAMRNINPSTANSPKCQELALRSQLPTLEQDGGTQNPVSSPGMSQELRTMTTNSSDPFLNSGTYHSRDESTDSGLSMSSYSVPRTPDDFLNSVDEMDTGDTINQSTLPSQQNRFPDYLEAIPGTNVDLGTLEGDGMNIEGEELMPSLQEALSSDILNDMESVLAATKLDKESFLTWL", "UniProt P15311": "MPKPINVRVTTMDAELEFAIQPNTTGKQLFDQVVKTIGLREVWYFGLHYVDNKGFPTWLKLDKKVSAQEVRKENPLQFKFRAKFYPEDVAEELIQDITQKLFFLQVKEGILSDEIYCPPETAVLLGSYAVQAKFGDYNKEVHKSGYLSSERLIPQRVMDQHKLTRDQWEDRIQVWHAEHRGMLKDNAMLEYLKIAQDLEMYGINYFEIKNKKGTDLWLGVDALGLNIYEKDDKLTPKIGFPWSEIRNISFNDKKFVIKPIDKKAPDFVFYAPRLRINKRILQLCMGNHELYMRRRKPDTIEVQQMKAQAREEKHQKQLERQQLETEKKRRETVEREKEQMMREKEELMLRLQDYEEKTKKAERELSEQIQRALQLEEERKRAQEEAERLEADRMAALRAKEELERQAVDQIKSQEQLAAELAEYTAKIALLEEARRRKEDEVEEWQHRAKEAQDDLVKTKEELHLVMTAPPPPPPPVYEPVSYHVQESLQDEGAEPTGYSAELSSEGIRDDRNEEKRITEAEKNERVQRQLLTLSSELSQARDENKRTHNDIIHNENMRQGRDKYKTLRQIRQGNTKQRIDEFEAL"},
  "source": "paper PMC12607357",
  "molecular_target": "Yes-associated protein (YAP) (human (endogenous in Caco-2)) (UniProt P46937)",
  "experiment": "affinity purification with mass spectrometry; co-IP from Caco-2 lysate (0.5% Triton X100 in PBS) on protein A/G magnetic beads; SDS-PAGE, Coomassie bands cut, LC-MS/MS; with and without oleic acid treatment of the cells",
  "note": "No constants are given. Whether binding was seen depends on the method and setting. In cells and extracts the contact can be indirect. A yes stands for co-enrichment or nearness to the bait. Other partners may have been found.",
  "data": [
    {"substance": "ezrin (from UniProt P15311 1-586)", "values": [
      {"measurement": "binding", "result": "binds"}
    ]}
  ]
}
